From patent publication US20160340415A1
These are yes or no findings as the source states them, for the method shown. Binding seen in cells or lysates may run through a third protein. Some results given as binding are weak or reduced against the parent protein; the word gives no strength.

By UniProt entry, the sequences of proteins in these tests, tags left out. Where a name states a change or a piece, a line headed by the entry shows the natural chain unless it says otherwise.
UniProt Q2FFA2: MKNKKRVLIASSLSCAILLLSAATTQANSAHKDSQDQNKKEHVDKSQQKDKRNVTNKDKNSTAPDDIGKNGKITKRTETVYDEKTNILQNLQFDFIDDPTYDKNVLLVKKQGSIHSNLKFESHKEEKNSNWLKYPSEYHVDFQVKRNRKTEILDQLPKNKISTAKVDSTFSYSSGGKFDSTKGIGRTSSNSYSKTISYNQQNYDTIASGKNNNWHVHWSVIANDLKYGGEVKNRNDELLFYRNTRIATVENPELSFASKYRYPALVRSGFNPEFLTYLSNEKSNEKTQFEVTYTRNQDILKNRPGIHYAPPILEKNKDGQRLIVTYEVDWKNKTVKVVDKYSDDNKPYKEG

T1: LukH_MRSA252 (Staphylococcus aureus MRSA252) (UniProt Q6GF49)
T1 sequence: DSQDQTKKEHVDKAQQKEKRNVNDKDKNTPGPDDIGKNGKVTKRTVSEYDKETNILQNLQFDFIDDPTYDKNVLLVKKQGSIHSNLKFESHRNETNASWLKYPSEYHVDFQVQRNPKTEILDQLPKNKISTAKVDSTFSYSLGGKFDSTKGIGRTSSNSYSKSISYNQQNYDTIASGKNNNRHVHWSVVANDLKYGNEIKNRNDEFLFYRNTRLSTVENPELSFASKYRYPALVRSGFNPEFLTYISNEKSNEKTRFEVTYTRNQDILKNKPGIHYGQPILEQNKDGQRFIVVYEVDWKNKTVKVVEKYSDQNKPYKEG

B1: LukG_MRSA252 (protein)
chain: EIKSKITTVSEKNLDGDTKMYTRTATTSDTEKKISQSLQFNFLTEPNYDKETVFIKAKGTIGSGLKILNPNGYWNSTLRWPGSYSVSIQNVDDNNNSTNVTDFAPKNQDESREVKYTYGYKTGGDFSINRGGLTGNITKEKNYSETISYQQPSYRTLIDQPTTNKGVAWKVEAHSINNMGHDHTRQLTNDSDDRVKSEIFSLTRNGNLWAKDNFTPKNKMPVTVSEGFNPEFLAVMSHDKNDKGKSRFIVHYKRSMDDFKLDWNKHGFWGYWSGENHVDQKEEKLSALYEVDWKTHDVKLIKTINDKEQK
B2: LukG_H19 (protein)
chain: NSEIKQVSEKNLDGETKMYTRTATTSDSQKNITQSLQFNFLTEKNYDKETVFIKAKGTIGSGLRILEPNGYWNSTLRWPGSYSVSIQNVDDNNNTNVTDFAPKNQDESREVKYTYGYKTGGDFSINQGGLTGNITKESNYSETISYQQPSYRTLIDQPTTNKGVAWKVEAHLINNMGHDHTRQLTNDSDDRVKSEIFSLTRNGNLWAKDNFTPKNKMPVTVSEGFNPEFLAVMSHDKKDEGKSKFVVHYKRSMDEFKIDWNKHGFWGYWSGENHVDKKEEKLSALYEVDWKTHNVKFIKVLNDKEKK

Experiments:
[1] = target: T1, LukH_MRSA252 (Staphylococcus aureus MRSA252); experiment: co-expression in E. coli; IMAC through NusA/His6 on LukG, with un-tagged LukH co-purified; the complex was kept through tag removal and cation exchange
[2] = target: LukH_H19 (Staphylococcus aureus H19) (UniProt Q2FFA2); experiment: as above

Binder	binding [1]	binding [2]
B1	binds	–
B2	–	binds
